Laboratory results as given in PubChem BioAssay AID504594 (Broad Institute, 2011).
Screen size: about 2,000 compounds; fewer than 10 were called active. Inconclusive results, whose numbers are uncertain, are shown with a selection of clear calls.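 How the source made its calls: active means growth inhibition of at least 75% in every replicate, which also brings the mean inhibition to 75% or more; inconclusive means mean inhibition 75% or more but some replicate under 75%; inactive means the rest.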

Test: growth inhibition of PfHsp90-dependent yeast, primary screen, antimalarial PfHsp90 inhibitor project, S. cerevisiae, BacTiter-Glo luminescence (AID 504594);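 further: 0% = DMSO neutral control wells and 100% = 20 µM radicicol control wells; higher value means stronger growth inhibition because the sign is flipped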
Settings: S. cerevisiae expressing PfHsp90, BacTiter-Glo growth, 48 h; at 9.4 µM; hits give high values

SMILES | growth inhibition
Cn1nc(-c2ccc(Cl)cc2)nc2c(=O)n(C)c(=O)nc1-2 | active: 104%
CCOC(=O)C1=C(C)NC(C)=C(C(=O)OC)C1c1cccc(Cl)c1Cl (configuration not stated) | inconclusive: 76.6%
